{"source": "patent US20230212122A1", "about": "“MITOCHONDRIAL TARGETING COMPOUNDS FOR THE TREATMENT OF ASSOCIATED DISEASES” (The Regents of the University of Michigan, priority 2020, published 2023)", "key": {"UM16 cell line [1]": {"system": "UM16 cell line", "assay": "GSEA of proteomics data ([…], KEGG pathways)", "assay_type": "cell-based", "conditions": "5 μM, 24 hours", "source_text": "Several proteins participating in energy metabolism were dramatically changed."}, "UM16 cell line [2]": {"system": "UM16 cell line", "assay": "GSEA of Bru-seq data (hallmark, KEGG, GO pathways, transcription factors)", "assay_type": "cell-based", "conditions": "5 μM, 4 hours", "source_text": "Consistent with this observation, there are also massive metabolite pathways influenced including starch and sucrose metabolism, glycolysis and gluconeogenesis, purine metabolism, pyrimidine metabolism, N-glycan biosynthesis, etc."}}, "note": "Further values from the same series stand in other lists.", "data": [{"compound": "CCOC(=O)[C@@H]1CCCN(S(=O)(=O)c2ccc(S(=O)(=O)N(CC)CC)cc2)C1", "note": "[DX2-201, ethyl (R)-1-((4-(N,N-diethylsulfamoyl)phenyl)sulfonyl)piperidine-3-carboxylate]", "values": [{"measurement": "ES", "setting": "UM16 cell line [1]; HALLMARK_ESTROGEN_RESPONSE_EARLY, FDR q-val 0.813", "value": 0.301}, {"measurement": "ES", "setting": "UM16 cell line [1]; KEGG_ANTIGEN_PROCESSING_AND_PRESENTATION, FDR q-val 0.792", "value": "−0.285"}, {"measurement": "ES", "setting": "UM16 cell line [1]; KEGG_BASAL_TRANSCRIPTION_FACTORS, FDR q-val 0.687", "value": "−0.389"}, {"measurement": "ES", "setting": "UM16 cell line [1]; KEGG_CELL_CYCLE, FDR q-val 0.828", "value": "−0.246"}, {"measurement": "ES", "setting": "UM16 cell line [1]; KEGG_CITRATE_CYCLE_TCA_CYCLE, FDR q-val 0.422", "value": "−0.445"}, {"measurement": "ES", "setting": "UM16 cell line [1]; KEGG_DNA_REPLICATION, FDR q-val 0.844", "value": "−0.273"}, {"measurement": "ES", "setting": "UM16 cell line [1]; KEGG_ERBB_SIGNALING_PATHWAY, FDR q-val 0.821", "value": 0.488}, {"measurement": "ES", "setting": "UM16 cell line [1]; KEGG_N_GLYCAN_BIOSYNTHESIS, FDR q-val 0.658", "value": "−0.366"}, {"measurement": "ES", "setting": "UM16 cell line [1]; KEGG_PARKINSONS_DISEASE, FDR q-val 0.702", "value": "−0.290"}, {"measurement": "ES", "setting": "UM16 cell line [1]; KEGG_PROTEASOME, FDR q-val 0.605", "value": "−0.401"}, {"measurement": "ES", "setting": "UM16 cell line [1]; KEGG_PROTEIN_EXPORT, FDR q-val 0.625", "value": "−0.376"}, {"measurement": "ES", "setting": "UM16 cell line [1]; KEGG_RIBOSOME, FDR q-val 0.003", "value": "−0.520"}, {"measurement": "ES", "setting": "UM16 cell line [1]; KEGG_RNA_DEGRADATION, FDR q-val 0.672", "value": "−0.342"}, {"measurement": "ES", "setting": "UM16 cell line [1]; KEGG_SPLICEOSOME, FDR q-val 0.541", "value": "−0.310"}, {"measurement": "ES", "setting": "UM16 cell line [1]; KEGG_VIBRIO_CHOLERAE_INFECTION, FDR q-val 0.754", "value": "−0.335"}, {"measurement": "NES", "setting": "UM16 cell line [2]; transcription factor set AP4_Q6, FDR q-val 0.078", "value": 1.607}, {"measurement": "NES", "setting": "UM16 cell line [2]; transcription factor set AREB6_04, FDR q-val 0.098", "value": 1.566}, {"measurement": "NES", "setting": "UM16 cell line [2]; transcription factor set E47_01, FDR q-val 0.060", "value": 1.646}, {"measurement": "NES", "setting": "UM16 cell line [2]; transcription factor set FOXJ2_02, FDR q-val 0.090", "value": 1.582}, {"measurement": "NES", "setting": "UM16 cell line [2]; transcription factor set FOXO1_02, FDR q-val 0.007", "value": 2.057}, {"measurement": "NES", "setting": "UM16 cell line [2]; transcription factor set FOXO4_01, FDR q-val 0.014", "value": 2.069}, {"measurement": "NES", "setting": "UM16 cell line [2]; transcription factor set FOXO4_02, FDR q-val 0.007", "value": 2.000}, {"measurement": "NES", "setting": "UM16 cell line [2]; transcription factor set FREAC3_01, FDR q-val 0.058", "value": 1.657}, {"measurement": "NES", "setting": "UM16 cell line [2]; transcription factor set HNF3_Q6, FDR q-val 0.073", "value": 1.604}, {"measurement": "NES", "setting": "UM16 cell line [2]; transcription factor set NKX62_Q2, FDR q-val 0.058", "value": 1.663}, {"measurement": "NES", "setting": "UM16 cell line [2]; transcription factor set OCT1_Q5_01, FDR q-val 0.094", "value": 1.574}, {"measurement": "NES", "setting": "UM16 cell line [2]; transcription factor set PAX2_02, FDR q-val 0.061", "value": 1.664}, {"measurement": "NES", "setting": "UM16 cell line [2]; transcription factor set RYCACNNRNNRNCAG_UNKNOWN, FDR q-val 0.075", "value": 1.606}, {"measurement": "NES", "setting": "UM16 cell line [2]; transcription factor set TTANWNANTGGM_UNKNOWN, FDR q-val 0.051", "value": 1.686}, {"measurement": "NES", "setting": "UM16 cell line [2]; transcription factor set YWATTWNNRGCT_UNKNOWN, FDR q-val 0.059", "value": 1.641}]}]}
